Data as given in PMC1479810.
Results are given in words; binding and its absence hold for the method and conditions named. Binding seen in cells or lysates may run through a third protein. Some entries that bind do so weakly or less than the wild type.

The chains behind the UniProt entries cited, without tags or fusion partners. Residues count along the entry.
UniProt P37023, residues 22-503: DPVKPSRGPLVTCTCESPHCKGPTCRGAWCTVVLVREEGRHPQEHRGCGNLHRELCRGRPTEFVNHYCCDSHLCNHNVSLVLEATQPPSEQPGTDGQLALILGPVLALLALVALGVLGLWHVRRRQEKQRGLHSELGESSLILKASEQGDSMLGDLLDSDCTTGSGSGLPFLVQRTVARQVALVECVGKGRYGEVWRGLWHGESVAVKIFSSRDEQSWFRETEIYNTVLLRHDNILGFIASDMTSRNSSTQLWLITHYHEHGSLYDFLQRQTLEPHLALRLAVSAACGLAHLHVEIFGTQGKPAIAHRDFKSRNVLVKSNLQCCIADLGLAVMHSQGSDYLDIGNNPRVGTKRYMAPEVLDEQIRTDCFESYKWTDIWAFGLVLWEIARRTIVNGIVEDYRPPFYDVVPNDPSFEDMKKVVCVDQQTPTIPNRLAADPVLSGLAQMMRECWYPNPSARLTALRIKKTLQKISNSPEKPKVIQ
UniProt P62139: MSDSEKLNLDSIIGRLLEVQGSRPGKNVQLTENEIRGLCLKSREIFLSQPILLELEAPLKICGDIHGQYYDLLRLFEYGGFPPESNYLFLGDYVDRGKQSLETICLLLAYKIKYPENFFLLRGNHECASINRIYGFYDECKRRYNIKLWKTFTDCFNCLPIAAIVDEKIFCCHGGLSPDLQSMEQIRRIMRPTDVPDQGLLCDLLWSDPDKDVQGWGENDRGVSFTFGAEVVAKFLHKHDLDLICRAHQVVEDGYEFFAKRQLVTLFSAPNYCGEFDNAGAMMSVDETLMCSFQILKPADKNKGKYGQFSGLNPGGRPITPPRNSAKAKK

Columns and labels:
[1] = target: wild-type (wt) ALK1/HA (human) (UniProt P37023); assay: co-IP; COS-7 cells transfected with eGFP-PP1α and wtALK1/HA, with or without Flag-Smad7; whole cell lysates immunoprecipitated with HA antibody, immunoblotted with PP1c antiserum
[2] = target: eGFP-PP1α (293T cells) (rabbit) (UniProt P62139); assay: co-IP; data not shown; ALK1 and eGFP-PP1α ectopically expressed in 293T cells; ALK1 labelled by cross-linking to 125I-TGF-β and co-immunoprecipitated with eGFP-PP1α

“eGFP-PP1α (from UniProt P62139 1-330) (enzyme)” was tested, and the binding [1] was “binds”.

In the case of “ALK1 (ectopically expressed in 293T cells, cross-linked to 125I-TGF-β) (from UniProt P37023 22-503) (receptor)”, the binding [2] is reported as “binds”.
